The record followed here is patent US20240052038A1.

The target of assay [1] is cynomolgus monkey PD-L1 on blood T lymphocytes (cynomolgus monkey) (UniProt G7PSE7). Briefly: receptor occupancy on blood T lymphocytes by flow cytometry, cynomolgus monkeys, single IV 13 mg/kg. (A flow cytometer gives signals particle by particle.)
Assay [2] has the same target. Put plainly: in vivo receptor occupancy on blood T lymphocytes of cynomolgus monkeys after a single IV infusion of 13 mg/kg; flow cytometry of PBMC; serum concentration by reverse ELISA on the same time axis.

These are yes or no findings as the source states them, for the method shown. Some entries that bind do so weakly or less than the wild type. Sequences can lack the tags named with a protein.

B1: Variant 4-G09 (Fc effector null-H315A + H440Q) (antibody, human IgG1, kappa, L234A L235A)
heavy: EVQLVESGGGLVQPGRSLRLSCAASGFTFDDYAMHWVRQTPGKGLEWVSGISWKSNIIGYADSVKGRFTISRDNAKNSLYLQMNSLRAEDTALYYCARDITGSGSYGWFDPWGQGTLVTVSSASTKGPSVFPLAPSSKSTSGGTAALGCLVKDYFPEPVTVSWNSGALTSGVHTFPAVLQSSGLYSLSSVVTVPSSSLGTQTYICNVNHKPSNTKVDKRVEPKSCDKTHTCPPCPAPEAAGGPSVFLFPPKPKDTLMISRTPEVTCVVVDVSHEDPEVKFNWYVDGVEVHNAKTKPREEQYNSTYRVVSVLTVLAQDWLNGKEYKCAVSNKALPAPIEKTISKAKGQPREPQVYTLPPSREEMTKNQVSLTCLVKGFYPSDIAVEWESNGQPENNYKTTPPVLDSDGSFFLYSKLTVDKSRWQQGNVFSCSVMHEALHNQYTQKSLSLSPG
light: DIQMTQSPSSLSASVGDRVTITCRASQSISSYLNWYQQKPGKAPKPLIYVASSLQSGVPSSFSGSGSGTDFTLTISSLQPEDFATYYCQQSYSNPITFGQGTRLEIKRTVAAPSVFIFPPSDEQLKSGTASVVCLLNNFYPREAKVQWKVDNALQSGNSQESVTEQDSKDSTYSLSSTLTLSKADYEKHKVYACEVTHQGLSSPVTKSFNRGEC
Take B1: the binding entry in assay [1] and in assay [2] was “binds” each time.
